Source: publication PMC4148199, “Multiple Regulation of Rad51-Mediated Homologous Recombination by Fission Yeast Fbh1” (PLoS Genetics, 2014)
Where a chain is given by its changes, count along the chain named. These are yes or no findings as the source states them, for the method shown. Some results given as binding are weak or reduced against the parent protein; the word gives no strength. Sequences can lack the tags named with a protein.

Chains of the proteins cited; added tags and fusions are not shown.
UniProt O13959: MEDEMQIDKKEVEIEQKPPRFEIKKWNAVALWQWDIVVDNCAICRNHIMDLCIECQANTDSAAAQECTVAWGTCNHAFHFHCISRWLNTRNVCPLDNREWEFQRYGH

How the values were obtained:
[1] = target: T1, S. pombe 6His-Pcu1 (S. pombe) (UniProt O13790); experiment: co-purification (co-elution on ion-exchange and heparin columns); insect cells co-infected with 6His-Pcu1 and 6His-Rbx1 baculoviruses; TALON resin, then co-elution from HiTrap Q (~500 mM NaCl) and HiTrap Heparin (~600 mM NaCl)
T1 sequence: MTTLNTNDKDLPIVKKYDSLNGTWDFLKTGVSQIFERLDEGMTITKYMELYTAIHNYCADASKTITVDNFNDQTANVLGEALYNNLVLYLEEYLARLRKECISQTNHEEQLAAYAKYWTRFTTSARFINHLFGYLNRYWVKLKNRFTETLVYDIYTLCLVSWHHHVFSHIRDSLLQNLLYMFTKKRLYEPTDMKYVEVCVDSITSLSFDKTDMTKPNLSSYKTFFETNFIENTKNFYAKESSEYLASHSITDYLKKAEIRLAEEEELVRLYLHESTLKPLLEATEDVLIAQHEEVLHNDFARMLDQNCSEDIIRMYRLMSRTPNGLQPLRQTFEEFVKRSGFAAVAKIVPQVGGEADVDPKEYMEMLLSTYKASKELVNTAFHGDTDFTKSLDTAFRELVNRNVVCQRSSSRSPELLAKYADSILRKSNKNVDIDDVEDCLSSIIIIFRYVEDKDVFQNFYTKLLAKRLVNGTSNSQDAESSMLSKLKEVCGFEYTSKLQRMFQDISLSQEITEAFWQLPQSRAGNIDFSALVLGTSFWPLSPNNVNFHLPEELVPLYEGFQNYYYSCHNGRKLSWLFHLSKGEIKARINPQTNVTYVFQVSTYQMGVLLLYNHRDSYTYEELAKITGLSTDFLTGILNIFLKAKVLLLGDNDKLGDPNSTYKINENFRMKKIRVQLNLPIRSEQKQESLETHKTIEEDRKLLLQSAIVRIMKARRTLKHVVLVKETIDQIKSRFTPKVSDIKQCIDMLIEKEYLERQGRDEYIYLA

[2] = target: T2, 3FLAG6His-Fbh1 (S. pombe) (UniProt Q9USU3); experiment: co-purification (co-elution on ion-exchange, heparin and gel-filtration columns); insect cells co-infected with the two baculoviruses; TALON resin, then co-elution from HiTrap Q (~500 mM NaCl), HiTrap Heparin (~600 mM NaCl), Superdex 200 in R buffer with 1 M NaCl, ResourceQ (~600 mM NaCl)
T2 sequence: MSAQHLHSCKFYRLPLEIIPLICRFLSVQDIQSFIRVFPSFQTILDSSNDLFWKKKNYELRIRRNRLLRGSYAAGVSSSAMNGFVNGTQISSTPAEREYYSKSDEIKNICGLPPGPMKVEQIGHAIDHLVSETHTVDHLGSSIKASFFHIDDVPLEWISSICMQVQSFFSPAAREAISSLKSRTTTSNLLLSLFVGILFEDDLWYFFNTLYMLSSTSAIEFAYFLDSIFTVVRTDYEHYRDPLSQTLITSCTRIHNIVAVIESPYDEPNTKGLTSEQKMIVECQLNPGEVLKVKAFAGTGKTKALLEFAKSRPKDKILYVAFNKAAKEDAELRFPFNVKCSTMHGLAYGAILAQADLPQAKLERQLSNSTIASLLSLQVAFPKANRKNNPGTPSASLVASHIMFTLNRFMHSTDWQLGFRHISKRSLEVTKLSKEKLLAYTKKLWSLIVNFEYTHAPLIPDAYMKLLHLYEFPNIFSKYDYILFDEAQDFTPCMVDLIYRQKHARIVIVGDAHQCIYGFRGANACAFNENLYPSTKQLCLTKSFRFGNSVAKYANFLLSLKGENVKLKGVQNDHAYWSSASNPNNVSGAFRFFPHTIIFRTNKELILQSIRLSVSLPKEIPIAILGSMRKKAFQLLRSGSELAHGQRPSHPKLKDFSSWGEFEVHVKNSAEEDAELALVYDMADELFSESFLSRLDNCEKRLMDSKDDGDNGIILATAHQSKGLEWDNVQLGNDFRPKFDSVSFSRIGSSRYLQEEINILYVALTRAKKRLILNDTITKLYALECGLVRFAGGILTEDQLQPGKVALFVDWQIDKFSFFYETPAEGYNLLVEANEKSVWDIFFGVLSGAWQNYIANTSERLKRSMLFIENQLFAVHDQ

[3] = target: T3, Fbh1^K301A (S. pombe) (UniProt Q9USU3); experiment: as above
T3 sequence: T2 sequence with K301A

[4] = target: T4, S. pombe 6His-Fbh1 (S. pombe) (UniProt Q9USU3); experiment: as above
T4 sequence: T2 sequence

[5] = target: T5, complex of 3FLAG6His-Fbh1 and 6His-Skp1 (S. pombe, UniProt Q9USU3 1-878; Q9Y709 1-161); experiment: co-IP; in vitro; 0.5 µg of each purified protein mixed in 10 µl 25 mM Tris-OAc pH 7.5, 100 mM KCl, 0.5% NP40, 3 mM Mg-acetate, 10 min room temperature then 20 min 4°C; M2 anti-FLAG antibody and Dynabeads Protein G; western blot with anti-Rad51, anti-Sfr1 or anti-M2; both purified
T5 construct: Fbh1 (F-box DNA helicase-1), Schizosaccharomyces pombe; Skp1, Schizosaccharomyces pombe; also called FLAG-His-tagged Fbh1-Skp1; Fbh1-Skp1 complex; source: insect cells, baculovirus co-infection, purified as a complex
T5 sequence (looked up) 1: T2 sequence
T5 sequence (looked up) 2: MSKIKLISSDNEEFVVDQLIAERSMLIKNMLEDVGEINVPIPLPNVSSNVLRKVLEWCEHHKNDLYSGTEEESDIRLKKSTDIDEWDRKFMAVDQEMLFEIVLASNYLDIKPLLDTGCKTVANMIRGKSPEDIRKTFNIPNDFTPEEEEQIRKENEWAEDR

## S. pombe 6His-Rbx1 (from UniProt O13959 1-107)
[1]
  binding: binds

B1: S. pombe 6His-Skp1 (protein, UniProt Q9Y709 1-161)
chain: T5 sequence (looked up) 2
[2]
  binding: binds
[3]
  binding: binds
[4]
  binding: binds

B2: Swi5-Sfr1 complex (complex, UniProt Q9UUB7 1-85; Q9USV1 1-299)
chain 1: MEKSQLESRVHLLEQQKEQLESSLQDALAKLKNRDAKQTVQKHIDLLHTYNEIRDIALGMIGKVAEHEKCTSVELFDRFGVNGSE
chain 2: MSQTINSELNENATSQCKEDLKVSLSESDLRDSQGQLGIENPPKCNNSGNHSDNLGFIEQSETVHPENEKALTPDLRDTKIHTSLPITTPFSKKRAREAKNILLKPFKSPLRQTASPQVADTNLKPSLAVTNLNSDETNTSSEPVTSPLRTTPNSIKRQKRLFKSPISNCLNPKSDPEITQLLSRRLKLEKEVRNLQEQLITAETARKVEAKNEDKDLQTLIQKWKNAAQQAAEVLFKPMAERIRLAGGVTQSFRIEEGENKGQIQEVRTEFTMSMFLNQFGVPVHLMSFDEENGDWKS
[5]
  binding: no binding (tested: 0.5 µg of each protein in 10 µl)
